In assay [1] the target is Myc-tagged p65 (Myc-p65) (UniProt Q04206). The assay is described as follows: co-IP; HEK293A (HEK293) cells transfected with Myc-p65, HA-ZHX2 and Fg-YAP-5SA and/or TEAD4-GFP, one of them in increasing amounts; extracts precipitated with anti-Myc antibody overnight, Protein A resin; western blot for tags, endogenous TEAD4 or YAP. Background: Immunoblotting shows a protein as a band on a membrane.

Chains of the proteins cited; added tags and fusions are not shown.
UniProt Q04206: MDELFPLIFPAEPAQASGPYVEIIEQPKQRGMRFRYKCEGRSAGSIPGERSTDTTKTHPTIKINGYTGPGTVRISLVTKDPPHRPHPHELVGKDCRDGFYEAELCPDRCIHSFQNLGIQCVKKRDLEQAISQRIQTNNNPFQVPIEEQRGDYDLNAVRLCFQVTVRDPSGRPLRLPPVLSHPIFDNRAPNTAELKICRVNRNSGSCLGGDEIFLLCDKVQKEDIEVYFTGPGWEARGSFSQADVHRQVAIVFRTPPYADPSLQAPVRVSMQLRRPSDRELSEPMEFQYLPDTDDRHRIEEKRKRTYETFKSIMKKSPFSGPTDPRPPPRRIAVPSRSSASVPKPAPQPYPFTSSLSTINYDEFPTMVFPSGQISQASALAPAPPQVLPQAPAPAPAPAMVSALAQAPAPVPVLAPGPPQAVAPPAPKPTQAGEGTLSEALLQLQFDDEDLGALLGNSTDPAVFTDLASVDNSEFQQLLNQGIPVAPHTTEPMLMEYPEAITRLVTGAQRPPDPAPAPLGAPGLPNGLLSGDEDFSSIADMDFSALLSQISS
UniProt P46937: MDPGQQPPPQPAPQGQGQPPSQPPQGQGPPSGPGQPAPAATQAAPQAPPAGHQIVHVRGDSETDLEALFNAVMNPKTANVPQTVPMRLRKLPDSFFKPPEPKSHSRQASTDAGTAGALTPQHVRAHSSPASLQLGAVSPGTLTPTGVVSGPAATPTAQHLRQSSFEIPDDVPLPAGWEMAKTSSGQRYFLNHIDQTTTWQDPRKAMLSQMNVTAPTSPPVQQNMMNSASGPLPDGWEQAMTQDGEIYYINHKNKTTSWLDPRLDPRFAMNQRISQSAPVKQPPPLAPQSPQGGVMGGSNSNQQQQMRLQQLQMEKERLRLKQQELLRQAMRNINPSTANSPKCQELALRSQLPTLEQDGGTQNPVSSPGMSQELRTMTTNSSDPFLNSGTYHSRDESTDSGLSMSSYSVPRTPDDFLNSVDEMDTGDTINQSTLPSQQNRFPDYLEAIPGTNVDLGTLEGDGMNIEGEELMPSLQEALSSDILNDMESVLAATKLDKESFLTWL

The target in assay [2] is p65 subunit of NF-κB, endogenous in 786-O cells (human (endogenous in 786-O)) (UniProt Q04206). Description: co-IP; endogenous proteins; 786-O cell extracts, cells grown without or with 2 μM XMU-MP-1 for 6 hours; precipitated with p65 antibody or control IgG overnight at 4°C, Protein A resin; western blot.

Drawing on doi:10.1101/2024.06.21.600079, this text covers binding for two substances.

No constants are given. Whether binding was seen depends on the method and setting. In cells and extracts the contact can be indirect. Some binding calls cover weakened binding; strength is not graded here.

For the substance “YAP, endogenous in HEK293 cells (from UniProt P46937 1-504)”, in assay [1], the binding result is on record as “binds”.

With “Yes1 associated transcriptional regulator (YAP), endogenous in 786-O cells (from UniProt P46937 1-504)”, the binding result in assay [2] is given as “binds”.
